In paper PMC5915600:
Read-outs that look alike come from different tables or passages of the source. Results are given in words; binding and its absence hold for the method and conditions named. Binding seen in cells or lysates may run through a third protein. A yes stands for co-enrichment or nearness to the bait. Other partners may have been found.

Protein sequences, listed by entry. Tags and fused reporters are not part of them.
UniProt P26358: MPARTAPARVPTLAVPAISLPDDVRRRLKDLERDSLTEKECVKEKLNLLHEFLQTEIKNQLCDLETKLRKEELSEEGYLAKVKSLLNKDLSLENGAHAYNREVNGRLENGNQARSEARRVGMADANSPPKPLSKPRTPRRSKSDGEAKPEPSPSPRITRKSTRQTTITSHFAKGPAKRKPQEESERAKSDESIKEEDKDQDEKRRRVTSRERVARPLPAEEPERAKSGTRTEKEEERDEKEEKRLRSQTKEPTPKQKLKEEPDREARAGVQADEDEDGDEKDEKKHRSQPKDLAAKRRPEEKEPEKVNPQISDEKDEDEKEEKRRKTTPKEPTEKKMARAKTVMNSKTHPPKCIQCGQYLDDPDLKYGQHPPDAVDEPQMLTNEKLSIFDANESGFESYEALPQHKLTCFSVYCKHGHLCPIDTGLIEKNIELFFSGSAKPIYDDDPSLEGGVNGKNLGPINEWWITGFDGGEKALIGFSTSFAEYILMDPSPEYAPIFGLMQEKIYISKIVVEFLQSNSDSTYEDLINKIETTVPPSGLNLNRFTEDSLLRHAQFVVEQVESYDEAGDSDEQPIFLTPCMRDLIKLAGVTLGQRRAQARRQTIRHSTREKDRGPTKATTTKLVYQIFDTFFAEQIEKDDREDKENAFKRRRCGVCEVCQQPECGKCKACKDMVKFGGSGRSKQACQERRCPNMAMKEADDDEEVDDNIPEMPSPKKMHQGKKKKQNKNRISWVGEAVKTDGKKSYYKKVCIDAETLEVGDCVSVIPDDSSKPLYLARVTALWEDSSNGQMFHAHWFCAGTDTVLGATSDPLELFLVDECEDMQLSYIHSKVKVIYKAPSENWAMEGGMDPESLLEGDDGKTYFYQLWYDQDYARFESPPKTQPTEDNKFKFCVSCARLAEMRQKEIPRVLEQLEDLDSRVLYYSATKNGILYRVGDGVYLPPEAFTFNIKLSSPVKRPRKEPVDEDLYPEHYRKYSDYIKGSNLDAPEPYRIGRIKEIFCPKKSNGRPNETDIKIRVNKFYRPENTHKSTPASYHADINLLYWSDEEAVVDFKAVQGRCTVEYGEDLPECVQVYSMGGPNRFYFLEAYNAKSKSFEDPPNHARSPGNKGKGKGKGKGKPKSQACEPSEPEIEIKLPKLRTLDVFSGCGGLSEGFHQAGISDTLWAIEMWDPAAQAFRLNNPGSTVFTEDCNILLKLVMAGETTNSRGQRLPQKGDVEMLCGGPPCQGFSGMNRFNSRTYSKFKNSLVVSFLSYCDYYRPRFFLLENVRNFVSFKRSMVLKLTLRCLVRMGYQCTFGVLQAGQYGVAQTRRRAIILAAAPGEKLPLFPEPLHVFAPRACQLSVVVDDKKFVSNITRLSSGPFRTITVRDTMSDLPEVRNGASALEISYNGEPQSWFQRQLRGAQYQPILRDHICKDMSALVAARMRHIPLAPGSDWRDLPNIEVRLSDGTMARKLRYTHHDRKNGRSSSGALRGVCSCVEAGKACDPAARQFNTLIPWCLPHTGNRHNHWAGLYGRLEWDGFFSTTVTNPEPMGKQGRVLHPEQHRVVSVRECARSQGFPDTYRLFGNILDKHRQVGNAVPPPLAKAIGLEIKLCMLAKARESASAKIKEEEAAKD
UniProt Q13620: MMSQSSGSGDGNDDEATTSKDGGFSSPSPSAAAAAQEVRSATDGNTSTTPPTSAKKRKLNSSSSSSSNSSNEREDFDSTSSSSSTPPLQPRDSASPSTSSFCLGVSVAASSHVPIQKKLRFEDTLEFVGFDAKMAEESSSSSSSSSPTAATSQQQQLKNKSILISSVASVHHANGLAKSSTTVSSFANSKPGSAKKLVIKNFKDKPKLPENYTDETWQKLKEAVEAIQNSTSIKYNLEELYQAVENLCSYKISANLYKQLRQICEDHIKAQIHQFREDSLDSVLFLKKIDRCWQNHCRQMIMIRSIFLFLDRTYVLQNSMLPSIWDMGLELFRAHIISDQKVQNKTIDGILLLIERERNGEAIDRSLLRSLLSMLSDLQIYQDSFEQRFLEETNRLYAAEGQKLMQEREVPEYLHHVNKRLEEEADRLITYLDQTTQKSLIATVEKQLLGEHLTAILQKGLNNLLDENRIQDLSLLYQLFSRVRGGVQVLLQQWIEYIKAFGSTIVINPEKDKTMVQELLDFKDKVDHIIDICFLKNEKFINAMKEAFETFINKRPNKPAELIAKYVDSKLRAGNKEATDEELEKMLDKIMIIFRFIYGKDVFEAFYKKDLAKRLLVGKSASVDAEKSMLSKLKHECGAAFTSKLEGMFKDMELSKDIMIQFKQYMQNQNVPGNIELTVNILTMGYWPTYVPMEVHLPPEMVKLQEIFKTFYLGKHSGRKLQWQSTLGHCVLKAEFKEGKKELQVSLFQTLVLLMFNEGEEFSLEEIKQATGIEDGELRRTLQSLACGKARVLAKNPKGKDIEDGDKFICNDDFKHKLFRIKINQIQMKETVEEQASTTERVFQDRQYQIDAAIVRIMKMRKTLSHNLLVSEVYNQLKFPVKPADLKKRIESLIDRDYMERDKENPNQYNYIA
UniProt Q16531: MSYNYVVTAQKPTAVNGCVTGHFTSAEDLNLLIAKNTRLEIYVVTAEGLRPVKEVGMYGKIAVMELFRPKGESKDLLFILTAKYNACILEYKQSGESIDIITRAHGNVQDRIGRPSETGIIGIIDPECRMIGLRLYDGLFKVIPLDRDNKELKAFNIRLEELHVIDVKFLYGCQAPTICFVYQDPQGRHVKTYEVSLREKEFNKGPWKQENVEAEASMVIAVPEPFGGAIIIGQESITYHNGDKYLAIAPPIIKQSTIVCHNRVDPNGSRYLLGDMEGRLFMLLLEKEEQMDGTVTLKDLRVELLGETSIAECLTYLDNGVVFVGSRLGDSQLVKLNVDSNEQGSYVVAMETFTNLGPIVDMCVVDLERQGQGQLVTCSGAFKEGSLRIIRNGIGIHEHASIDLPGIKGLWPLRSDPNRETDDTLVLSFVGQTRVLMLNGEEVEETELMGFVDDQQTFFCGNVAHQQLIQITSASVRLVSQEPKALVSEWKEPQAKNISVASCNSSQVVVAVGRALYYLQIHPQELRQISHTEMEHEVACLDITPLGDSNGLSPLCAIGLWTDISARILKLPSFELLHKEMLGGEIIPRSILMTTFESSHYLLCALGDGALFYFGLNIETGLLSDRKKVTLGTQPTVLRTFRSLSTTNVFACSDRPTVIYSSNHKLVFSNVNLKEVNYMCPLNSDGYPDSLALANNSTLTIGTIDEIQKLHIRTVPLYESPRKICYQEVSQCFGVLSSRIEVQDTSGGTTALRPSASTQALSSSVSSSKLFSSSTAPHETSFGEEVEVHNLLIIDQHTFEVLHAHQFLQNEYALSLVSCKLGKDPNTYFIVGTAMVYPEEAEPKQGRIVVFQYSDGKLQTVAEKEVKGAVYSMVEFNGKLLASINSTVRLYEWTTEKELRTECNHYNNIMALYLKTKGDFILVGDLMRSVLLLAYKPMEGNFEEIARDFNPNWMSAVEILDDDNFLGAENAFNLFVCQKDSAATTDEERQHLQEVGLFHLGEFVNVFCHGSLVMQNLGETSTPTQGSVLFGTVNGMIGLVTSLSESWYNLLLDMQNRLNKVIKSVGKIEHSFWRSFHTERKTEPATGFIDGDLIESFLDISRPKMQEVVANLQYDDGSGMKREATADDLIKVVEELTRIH

Legend:
[1] = target: Flag-DNMT1 knock-in (endogenous DNMT1 allele C-terminally tagged with the Flag epitope) (human (endogenous in HCT116)) (UniProt P26358); experiment: affinity purification with mass spectrometry; Flag-knock-in DNMT1 complexes from HCT116-Flag-DNMT1 lysates on anti-Flag M2 affinity gel, control HCT116 without the tag; gel bands trypsinized, LTQ Orbitrap XL
[2] = target: Flag-DNMT1 knock-in (endogenous DNMT1 allele C-terminally tagged with the Flag epitope) (human (endogenous in HCT116)) (UniProt P26358); experiment: as above; remark: listed apart in the source

Row | binding [1] | binding [2] | Molecule
1 | binds |  | CUL4B, endogenous (from UniProt Q13620 1-913)
2 | binds |  | DDB1, endogenous (from UniProt Q16531 1-1140)
3 |  | binds | L3MBTL3, endogenous (protein, UniProt Q96JM7 1-780) MTESASSTSGQEFDVFSVMDWKDGVGTLPGSDLKFRVNEFGALEVITDENEMENVKKATATTTWMVPTAQEAPTSPPSSRPVFPPAYWTSPPGCPTVFSEKTGMPFRLKDPVKVEGLQFCENCCQYGNVDECLSGGNYCSQNCARHIKDKDQKEERDVEEDNEEEDPKCSRKKKPKLSLKADTKEDGEERDDEMENKQDVRILRGSQRARRKRRGDSAVLKQGLPPKGKKAWCWASYLEEEKAVAVPAKLFKEHQSFPYNKNGFKVGMKLEGVDPEHQSVYCVLTVAEVCGYRIKLHFDGYSDCYDFWVNADALDIHPVGWCEKTGHKLHPPKGYKEEEFNWQTYLKTCKAQAAPKSLFENQNITVIPSGFRVGMKLEAVDKKNPSFICVATVTDMVDNRFLVHFDNWDESYDYWCEASSPHIHPVGWCKEHRRTLITPPGYPNVKHFSWDKYLEETNSLPAPARAFKVKPPHGFQKKMKLEVVDKRNPMFIRVATVADTDDHRVKVHFDGWNNCYDYWIDADSPDIHPVGWCSKTGHPLQPPLSPLELMEASEHGGCSTPGCKGIGHFKRARHLGPHSAANCPYSEINLNKDRIFPDRLSGEMPPASPSFPRNKRTDANESSSSPEIRDQHADDVKEDFEERTESEMRTSHEARGAREEPTVQQAQRRSAVFLSFKSPIPCLPLRWEQQSKLLPTVAGIPASKVSKWSTDEVSEFIQSLPGCEEHGKVFKDEQIDGEAFLLMTQTDIVKIMSIKLGPALKIFNSILMFKAAEKNSHNEL
